# Data: paper PMC11414720
# Amino acid sequences for entries named in this document (tags omitted).
# UniProt Q15436: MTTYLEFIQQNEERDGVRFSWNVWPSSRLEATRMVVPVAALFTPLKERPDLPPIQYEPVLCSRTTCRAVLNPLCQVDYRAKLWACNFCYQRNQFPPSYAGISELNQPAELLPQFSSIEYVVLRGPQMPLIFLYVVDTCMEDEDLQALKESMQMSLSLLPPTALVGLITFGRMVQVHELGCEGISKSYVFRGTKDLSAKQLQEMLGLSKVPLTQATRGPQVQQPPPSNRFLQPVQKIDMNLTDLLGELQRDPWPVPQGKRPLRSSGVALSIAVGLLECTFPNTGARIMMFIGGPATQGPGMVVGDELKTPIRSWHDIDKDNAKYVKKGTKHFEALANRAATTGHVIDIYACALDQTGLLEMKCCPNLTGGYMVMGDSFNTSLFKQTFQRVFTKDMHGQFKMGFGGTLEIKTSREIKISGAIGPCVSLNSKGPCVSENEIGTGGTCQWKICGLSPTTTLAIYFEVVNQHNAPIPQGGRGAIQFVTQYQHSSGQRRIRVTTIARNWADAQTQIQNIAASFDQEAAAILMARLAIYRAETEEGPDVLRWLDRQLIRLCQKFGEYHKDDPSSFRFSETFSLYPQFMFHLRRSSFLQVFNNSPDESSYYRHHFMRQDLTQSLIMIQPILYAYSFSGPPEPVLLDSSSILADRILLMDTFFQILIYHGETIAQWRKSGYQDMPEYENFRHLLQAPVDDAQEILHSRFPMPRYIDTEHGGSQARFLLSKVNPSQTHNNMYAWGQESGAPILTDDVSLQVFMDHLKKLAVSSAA
# Residue numbers refer to the chain shown, from its start. In names and notes the source's numbering stands. These are yes or no findings as the source states them, for the method shown. For some assays here: In cells and extracts the contact can be indirect. Some entries that bind do so weakly or less than the wild type. For some assays here: Tags and fused reporters may be left off the sequences shown.
# T1: Myc-tagged TMED9 (MYC-TMED9 in pcDNA3.1(+)) (human) (UniProt Q9BVK6)
# T1 sequence: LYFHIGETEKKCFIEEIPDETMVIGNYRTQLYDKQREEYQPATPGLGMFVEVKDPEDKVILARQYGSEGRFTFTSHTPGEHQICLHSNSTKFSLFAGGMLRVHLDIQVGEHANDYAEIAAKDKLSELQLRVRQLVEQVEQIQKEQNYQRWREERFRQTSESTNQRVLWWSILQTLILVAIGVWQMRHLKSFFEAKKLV
# T2: Myc-tagged TMED9 R223E (MYC-TMED9 R223E in pcDNA3.1(+)) (human) (UniProt Q9BVK6)
# T2 sequence: T1 sequence with R186E
# B1: endogenous COPB2 (COPI coatomer subunit) (protein, UniProt P35606 1-906)
# chain: MPLRLDIKRKLTARSDRVKSVDLHPTEPWMLASLYNGSVCVWNHETQTLVKTFEVCDLPVRAAKFVARKNWVVTGADDMQIRVFNYNTLERVHMFEAHSDYIRCIAVHPTQPFILTSSDDMLIKLWDWDKKWSCSQVFEGHTHYVMQIVINPKDNNQFASASLDRTIKVWQLGSSSPNFTLEGHEKGVNCIDYYSGGDKPYLISGADDRLVKIWDYQNKTCVQTLEGHAQNVSCASFHPELPIIITGSEDGTVRIWHSSTYRLESTLNYGMERVWCVASLRGSNNVALGYDEGSIIVKLGREEPAMSMDANGKIIWAKHSEVQQANLKAMGDAEIKDGERLPLAVKDMGSCEIYPQTIQHNPNGRFVVVCGDGEYIIYTAMALRNKSFGSAQEFAWAHDSSEYAIRESNSIVKIFKNFKEKKSFKPDFGAESIYGGFLLGVRSVNGLAFYDWDNTELIRRIEIQPKHIFWSDSGELVCIATEESFFILKYLSEKVLAAQETHEGVTEDGIEDAFEVLGEIQEIVKTGLWVGDCFIYTSSVNRLNYYVGGEIVTIAHLDRTMYLLGYIPKDNRLYLGDKELNIISYSLLVSVLEYQTAVMRRDFSMADKVLPTIPKEQRTRVAHFLEKQGFKQQALTVSTDPEHRFELALQLGELKIAYQLAVEAESEQKWKQLAELAISKCQFGLAQECLHHAQDYGGLLLLATASGNANMVNKLAEGAERDGKNNVAFMSYFLQGKVDACLELLIRTGRLPEAAFLARTYLPSQVSRVVKLWRENLSKVNQKAAESLADPTEYENLFPGLKEAFVVEEWVKETHADLWPAKQYPLVTPNEERNVMEEGKDFQPSRSTAQQELDGKPASPTPVIVASHTANKEEKSLLELEVDLDNLELEDIDTTDINLDEDILDD
# B2: Myc-tagged TMED9 (MYC-TMED9 in pcDNA3.1(+)) (receptor, UniProt Q9BVK6 38-235)
# chain: T1 sequence
# B3: Myc-tagged TMED9 R223E (MYC-TMED9 R223E in pcDNA3.1(+)) (receptor, UniProt Q9BVK6 38-235)
# chain: T1 sequence with R186E
# B4: endogenous TMED9 from kidney epithelial cells (N cells) (receptor, UniProt Q9BVK6 38-235)
# chain: T1 sequence
# Legend:
# [1] = target: T1, Myc-tagged TMED9 (MYC-TMED9 in pcDNA3.1(+)) (human); experiment: co-IP; HEK293T transfected with Myc-TMED9; lysis in 100 mM NaCl, 5 mM EDTA, 50 mM tris pH 7.5, 1% NP-40; anti-c-MYC magnetic beads, 30 min at room temperature, washes with 5x TBST; blots of endogenous proteins
# [2] = target: T2, Myc-tagged TMED9 R223E (MYC-TMED9 R223E in pcDNA3.1(+)) (human); experiment: as above
# [3] = target: GFP-SEC23a (pEGFP-Sec23A) (UniProt Q15436); experiment: co-IP; HEK293T cotransfected with GFP-SEC23a and Myc-TMED9; GFP-Trap magnetic agarose beads, 1 hour at 4°C, two washes with 5x TBST
# [4] = target: endogenous TMED9 from kidney epithelial cells (N cells) (not stated (endogenous in kidney epithelial N cells)) (UniProt Q9BVK6); experiment: SEC; endogenous protein from kidney epithelial cells (N cells) solubilized in LMNG+CHS
binder,measurement,setting,value
B1,binding,[1],binds
same,binding,[2],binds
B2,binding,[3],binds
B3,binding,[3],binds
B4,binding,[4],binds
